From publication PMC5993331
Results are given in words; binding and its absence hold for the method and conditions named. Tags and fused reporters may be left off the sequences shown.

Protein sequences, listed by entry. Tags and fused reporters are not part of them. Residues count along the entry.
UniProt P08603, residues 19-1231: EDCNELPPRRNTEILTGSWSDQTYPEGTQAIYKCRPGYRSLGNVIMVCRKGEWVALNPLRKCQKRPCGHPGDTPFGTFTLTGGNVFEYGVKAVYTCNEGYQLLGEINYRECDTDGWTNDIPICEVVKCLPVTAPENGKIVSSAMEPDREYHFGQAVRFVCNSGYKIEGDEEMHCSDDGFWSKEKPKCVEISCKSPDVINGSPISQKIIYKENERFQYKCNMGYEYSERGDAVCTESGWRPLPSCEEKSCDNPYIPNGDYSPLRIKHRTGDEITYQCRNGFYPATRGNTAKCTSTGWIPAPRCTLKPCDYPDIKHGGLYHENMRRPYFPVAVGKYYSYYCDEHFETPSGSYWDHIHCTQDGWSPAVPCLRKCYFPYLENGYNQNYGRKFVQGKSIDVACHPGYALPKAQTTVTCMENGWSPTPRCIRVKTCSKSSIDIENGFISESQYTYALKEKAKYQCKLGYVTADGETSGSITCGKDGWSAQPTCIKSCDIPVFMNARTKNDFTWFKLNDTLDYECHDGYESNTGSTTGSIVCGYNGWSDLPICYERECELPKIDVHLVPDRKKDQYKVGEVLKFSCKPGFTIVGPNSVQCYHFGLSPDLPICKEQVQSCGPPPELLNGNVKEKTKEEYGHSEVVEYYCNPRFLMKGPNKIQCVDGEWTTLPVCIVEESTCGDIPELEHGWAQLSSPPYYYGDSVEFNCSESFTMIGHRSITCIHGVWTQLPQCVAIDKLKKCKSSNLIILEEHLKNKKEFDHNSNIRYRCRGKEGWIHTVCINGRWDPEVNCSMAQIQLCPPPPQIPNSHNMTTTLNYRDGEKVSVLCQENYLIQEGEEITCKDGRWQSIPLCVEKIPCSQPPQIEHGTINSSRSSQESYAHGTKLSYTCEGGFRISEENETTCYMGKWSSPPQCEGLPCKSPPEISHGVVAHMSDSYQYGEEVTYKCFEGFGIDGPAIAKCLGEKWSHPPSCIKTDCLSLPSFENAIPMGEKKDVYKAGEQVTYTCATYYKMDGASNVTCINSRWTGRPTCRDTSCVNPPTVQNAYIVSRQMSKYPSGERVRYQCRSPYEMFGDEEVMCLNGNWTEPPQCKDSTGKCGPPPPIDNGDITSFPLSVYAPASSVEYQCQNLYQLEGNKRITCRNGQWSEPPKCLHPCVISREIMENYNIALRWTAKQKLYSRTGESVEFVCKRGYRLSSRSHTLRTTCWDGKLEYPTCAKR
UniProt P06909, residues 19-1234: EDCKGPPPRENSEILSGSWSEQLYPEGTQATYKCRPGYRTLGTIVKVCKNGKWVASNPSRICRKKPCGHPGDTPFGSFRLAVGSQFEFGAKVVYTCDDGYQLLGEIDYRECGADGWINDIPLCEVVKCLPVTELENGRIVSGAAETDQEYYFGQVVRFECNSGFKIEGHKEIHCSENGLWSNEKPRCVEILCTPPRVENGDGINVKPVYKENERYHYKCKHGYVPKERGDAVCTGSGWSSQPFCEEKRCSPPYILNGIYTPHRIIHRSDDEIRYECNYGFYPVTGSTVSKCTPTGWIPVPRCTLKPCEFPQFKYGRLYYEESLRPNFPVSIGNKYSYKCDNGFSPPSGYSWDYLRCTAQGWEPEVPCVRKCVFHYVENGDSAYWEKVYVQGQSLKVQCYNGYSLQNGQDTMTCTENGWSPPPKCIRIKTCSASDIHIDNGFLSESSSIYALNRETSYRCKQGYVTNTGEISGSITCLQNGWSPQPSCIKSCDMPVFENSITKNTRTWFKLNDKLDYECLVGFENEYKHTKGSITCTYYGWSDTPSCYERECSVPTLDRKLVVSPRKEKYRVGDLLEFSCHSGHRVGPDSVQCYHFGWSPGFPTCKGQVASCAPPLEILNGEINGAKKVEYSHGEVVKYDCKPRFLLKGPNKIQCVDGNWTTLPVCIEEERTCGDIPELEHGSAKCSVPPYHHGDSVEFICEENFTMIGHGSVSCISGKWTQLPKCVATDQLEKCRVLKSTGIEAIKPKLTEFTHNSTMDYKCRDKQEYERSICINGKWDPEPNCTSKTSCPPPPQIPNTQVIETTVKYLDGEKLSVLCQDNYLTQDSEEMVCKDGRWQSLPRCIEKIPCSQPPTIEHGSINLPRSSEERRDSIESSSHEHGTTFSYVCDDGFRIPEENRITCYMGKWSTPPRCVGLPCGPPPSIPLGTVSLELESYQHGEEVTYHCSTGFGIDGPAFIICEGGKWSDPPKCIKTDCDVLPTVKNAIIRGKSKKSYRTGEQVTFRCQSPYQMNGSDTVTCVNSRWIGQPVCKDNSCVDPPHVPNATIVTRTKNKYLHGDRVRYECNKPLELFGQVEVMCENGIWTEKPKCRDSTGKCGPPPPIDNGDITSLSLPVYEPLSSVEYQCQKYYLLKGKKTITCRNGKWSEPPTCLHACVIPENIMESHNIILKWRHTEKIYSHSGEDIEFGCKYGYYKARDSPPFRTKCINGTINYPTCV

Tests used:
[1] = target: factor H (FH) from human, purified (human) (UniProt P08603); assay: ELISA; one microgram of FH coated on microtiter wells; 0.03125 to 2 μM histidine-tagged CspA proteins or DbpA added; detected by mouse anti-histidine tag; KD from a one-site fit of OD405; both purified
[2] = target: factor H (FH) from mouse, purified (mouse (Mus musculus)) (UniProt P06909); assay: as above

B1: histidine-tagged DbpA from B. burgdorferi strain B31 (protein, UniProt O50917 30-191)
chain: ATKIRLERSAKDITDEIDAIKKDAALKGVNFDAFKDKKTGSGVSENPFILEAKVRATTVAEKFVIAIEEEATKLKETGSSGEFSAMYDLMFEVSKPLQKLGIQEMTKTVSDAAEENPPTTAQGVLEIAKKMREKLQRVHTKNYCTLKKKENSTFTDEKCKNN
B1 was tested, and the binding [1] was “no binding (tested: 2 μM)” and the binding [2] was “no binding (tested: 2 μM)”.
